Assay results from PubChem BioAssay AID2685 (National Center for Advancing Translational Sciences (NCATS), 2010).
In all, about 320,000 compounds went through this assay and about 2,100 (0.66%) were called active. Calls come from the whole dose curve; as a rule, active = well fitted inhibition curve with a large enough effect in the signal ratio, with a control signal flat (not every such curve was filed as active); inconclusive = small, poorly fitted or top-dose-only effect, or effect the other way, or a change in a side signal; inactive = flat fitted curve, though single readings scatter; the % refers to the signal ratio. Inconclusive results, whose numbers are uncertain, are shown. Potencies beside an inconclusive call are fits to weak or partial responses and may not hold up.

Test: qHTS Assay for Lipid Storage Modulators in Drosophila S3 Cells
Conditions: BODIPY lipid droplet fluorescence, 18-24 h, cells fed with added oleic acid; lipid storage change, negative = inhibition: at 46.1 µM (top of the series) unless noted
Summary of the method: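 Drosophila S3 cells got compounds at several concentrations plus oleic acid (400 uM solution). Laser-scanning cytometry with 488 nm excitation read lipid droplets at 500-530 nm and cells at 575-640 nm. Percent activity was relative to 20 uM Triacsin C.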
% is set by controls: 0 for no effect and ±100 for the full control effect; potency is the fitted concentration of half-maximal effect.

SMILES	Potency	lipid storage change, negative = inhibition
CC(C)OC(=O)CC1=NC(=O)CS1	inconclusive: 0.82 µM [falling, full curve]	–
CCCOc1ccc(-c2cn3ccccc3n2)cc1[N+](=O)[O-]	–	inconclusive: -6.8%
CCCn1cc(SCC(=O)Nc2cc(C)on2)c2ccccc21	–	inconclusive: -11.2%
O=C(O)/C=C/c1cn(-c2ncc(C(F)(F)F)cc2Cl)c2ccccc12	–	inconclusive: 7.43%
CC1CCN(C(=O)CCc2ccc(Oc3cc([N+](=O)[O-])cc([N+](=O)[O-])c3)cc2)CC1	inconclusive: 29.1 µM [rising, single point]	–
O=C(O)c1ccc2nc(-c3ccccc3)sc2c1	–	inconclusive: -36.7%
Cc1ccsc1C(=O)N1CC(=O)Nc2ccccc21	inconclusive: 9.2 µM [activator, partial curve, poor fit]	–
Cc1ccc(S(=O)(=O)NCc2cn3ccsc3n2)c(C)c1	–	inconclusive: 45.6%
Cc1ccc(CN2CC(C(=O)N3CCN(S(=O)(=O)c4ccccc4)CC3)CC2=O)cc1 (stereo not drawn)	–	inconclusive
CC(=O)c1ccc(NC(=O)[C@@H]2CCCN2C2=NS(=O)(=O)c3ccccc32)cc1	–	inconclusive: -54%
C=CCc1cc(/C=N/n2cnnc2)cc(OCC)c1O	–	inconclusive: 9.7%
O=C(N/N=C/c1cc([N+](=O)[O-])ccc1O)c1ccc2c(c1)OCCO2	inconclusive: 29.1 µM [falling, single point]	–
C=CCS/C(=N\n1cnc2ccccc2c1=O)N1CCCCC1	–	inconclusive: 21.6%
COc1cc(OC)c(NC(=O)Cn2cccc2)cc1Cl	inconclusive: 4.61 µM [activator, partial curve]	–
Cc1ccc(-n2c(SCC(=O)N3Cc4ccccc4CC3C(=O)O)nnc2-c2cccnc2)c(C)c1 (stereo not drawn)	–	inconclusive: 18.4%
COc1cc(NC(=O)CCNC(=O)Cn2ccc3ccccc3c2=O)cc(OC)c1OC	inconclusive: 3.26 µM [activator, full curve]	–
Cc1cccc(-n2ccc(=O)c(C(=O)O)n2)c1	–	inconclusive: 14.6%
CN1CCC(N(C)S(=O)(=O)c2ccc(NC(=O)c3cccc(C#N)c3)cc2)CC1	–	inconclusive: 22.8%
O=C(CNC(=O)c1cccs1)N/N=C/c1ccc(Cl)cc1	inconclusive: 16.4 µM [activator, partial curve]	–
O=C1CS/C(=C\S(=O)(=O)c2ccc(Cl)cc2)N1	inconclusive: 1.16 µM [falling, full curve]	–
Cc1ccc(C)c(OCCN2CCOCC2)c1	–	inconclusive: 65.6%
CCn1cc(Br)c(C(=O)NC(=S)Nc2ccc(C(=O)OC)cc2)n1	–	inconclusive: -2.81%
O=C(Cc1csc(N2CCOCC2)n1)N/N=C/c1ccc(O)c(O)c1O	inconclusive: 0.366 µM [falling, partial curve, poor fit]	–
CC(C)Cc1cc(C(=O)N2CCC(N3CCC(C(=O)NC4CC4)CC3)CC2)n[nH]1	–	inconclusive: -26.5%

SMILES	Potency	lipid storage change, negative = inhibition
CC(CNC(=O)CN(C)CC(=O)Nc1ccccc1Br)c1ccccc1 (stereo not drawn)	–	inconclusive
CCCCNC(=O)N(O)C1N(/N=C/c2ccco2)C(=S)SC1(C)C (stereo not drawn)	inconclusive: 29.1 µM [rising, single point]	–
COc1ccccc1N1CCN(C(c2ccc(F)cc2)c2nnnn2C(C)C)CC1 (stereo not drawn)	inconclusive: 25.9 µM [activator, single point]	–
CC(C)c1nc(SCC(=O)Nc2cccc(C(=O)O)c2)c2c3c(sc2n1)CCCC3	inconclusive: 0.651 µM [activator, single point]	–
O=c1c2cc(Br)ccc2[nH]c(=S)n1Cc1cccnc1	–	inconclusive: 1.62%
COc1ccc(CNC(=O)C(NC(C)=O)C(=O)Nc2ccc(OC)cc2)cc1 (stereo not drawn)	–	inconclusive: 21.5%
Cc1ccccc1-c1nnc(SCC(=O)NCC2CCCO2)o1 (stereo not drawn)	–	inconclusive: 15.2%
CN(CCOC(=O)CN1C(=O)c2ccccc2C1=O)C1=NS(=O)(=O)c2ccccc21	–	inconclusive: -44.2%
COc1cc2nc(=S)n(CCCN3CCOCC3)c(N)c2cc1OC	–	inconclusive: -9.11%
COc1ccc(/C=C/C(=O)NCC(=O)N=Nc2c(O)[nH]c3ccc([N+](=O)[O-])cc23)cc1	inconclusive: 20.6 µM [falling, single point]	–
O=C(NN=C1CCCCCC1)c1ccncc1	inconclusive: 0.13 µM [activator, full curve, poor fit]	–
CCCn1c(=O)[nH]c(=O)c2c1nc(-c1ccc(OC(F)F)c(OC)c1)n2CCOC	inconclusive: 3.66 µM [activator, single point]	–
Cc1cccc(NS(=O)(=O)c2cc(C(=O)NCc3ccccn3)ccc2C)c1	–	inconclusive: -3.35%
Cc1ccc(NC(=O)CCCc2nc3ccccc3s2)c(O)c1	–	inconclusive: 0.492%
COc1cccc(C(=O)NC2CC(C)(C)Cc3c2cnn3-c2cccc(F)c2)c1OC (stereo not drawn)	–	inconclusive: 62.7%
COc1ccc(/C=C/c2nnc(NC(=O)CC(C)C)s2)cc1	–	inconclusive: -11.3%
CC(=O)C1C(c2ccc(OC(F)F)cc2)NC(=O)NC1(O)C(F)(F)F (stereo not drawn)	–	inconclusive: -69.1%
Cn1c(CNC(=O)c2ccco2)nnc1SCC(=O)N1c2ccccc2Sc2ccccc21	–	inconclusive: 2.85%
CCOC(=O)c1c(C)[nH]c(C(=O)OCC(=O)Nc2cccnc2Cl)c1C	–	inconclusive: 8.64%
CCCCn1c(S(=O)(=O)O)nc2ccccc21	–	inconclusive: 9.03%
COc1cc(F)c(C2=CC(=O)CC(C)(C)C2)cc1F	inconclusive: 6.51 µM [falling, single point]	–
O=C(CSc1nc(-c2cccs2)cc(C(F)(F)F)n1)Nc1cc(OCC(F)(F)C(F)F)cc([N+](=O)[O-])c1	inconclusive: 29.1 µM [cytotoxic, single point]	–
CCOC(=O)CSc1nc2ccccc2c(=O)n1CC	–	inconclusive: 58.7%
COCCCn1c(SCC(=O)Nc2nnc(C)s2)nnc1-c1ccoc1C	–	inconclusive: 11% [at 9.22 µM]

Another view of some results above:
SMILES | Potency | lipid storage change, negative = inhibition
COc1cc(NC(=O)CCNC(=O)Cn2ccc3ccccc3c2=O)cc(OC)c1OC | inconclusive: 3.26 µM [activator, full curve] | –
Cc1cccc(-n2ccc(=O)c(C(=O)O)n2)c1 | – | inconclusive: 14.6%
CN1CCC(N(C)S(=O)(=O)c2ccc(NC(=O)c3cccc(C#N)c3)cc2)CC1 | – | inconclusive: 22.8%
O=C(CNC(=O)c1cccs1)N/N=C/c1ccc(Cl)cc1 | inconclusive: 16.4 µM [activator, partial curve] | –
